Measurements: patent publication US9637724B2, “Selective binding of biological targets to solid phase ureides” (AGENCY FOR SCIENCE, TECHNOLOGY AND RESEARCH, priority 2012, dated 2017)

Tested on: endotoxin
Test: Endotoxin reduction from an ovalbumin solution
Settings: start about 50 EU/mL
Method: A sample of ovalbumin in 50 mM phosphate, 100 mM NaCl, pH 7.2, contaminated with about 50 EU/mL of endotoxin, was saturated with 3% allantoin, incubated for 15 minutes, following which the precipitate was removed by membrane filtration. Endotoxin content of the supernatant was reduced by more than 95%, to less than 2 EU per mL. The experiment was repeated with 10% allantoin.

SMILES: NC(=O)NC1NC(=O)NC1=O (centres unmarked) [allantoin]
- Endotoxin content of the supernatant (3% allantoin, 15 minutes): less than 2 EU per mL
- Endotoxin content of the supernatant (10% allantoin): less than 1 EU/mL
